No constants are given. Whether binding was seen depends on the method and setting. Some results given as binding are weak or reduced against the parent protein; the word gives no strength.
Target: T1, Wbp1-CPLV (S. cerevisiae) (UniProt P33767)
T1 sequence: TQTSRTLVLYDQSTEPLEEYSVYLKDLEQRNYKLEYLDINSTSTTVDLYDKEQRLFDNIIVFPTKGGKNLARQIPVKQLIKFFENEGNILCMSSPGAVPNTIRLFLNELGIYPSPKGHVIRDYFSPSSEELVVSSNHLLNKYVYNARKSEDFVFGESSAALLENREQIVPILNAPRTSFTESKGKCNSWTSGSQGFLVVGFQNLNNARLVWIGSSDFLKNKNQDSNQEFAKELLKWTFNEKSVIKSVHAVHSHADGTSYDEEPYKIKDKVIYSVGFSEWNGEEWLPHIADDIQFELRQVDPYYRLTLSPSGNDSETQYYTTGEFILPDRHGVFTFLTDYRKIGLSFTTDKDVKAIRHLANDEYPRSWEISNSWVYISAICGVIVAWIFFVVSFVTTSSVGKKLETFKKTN
Experiment: two-hybrid; split-ubiquitin (NubG prey, Cub-PLV bait) plate assay: growth without histidine, leucine and tryptophan and blue colour on X-gal, 3 days at 30°C; baits integrated in heterozygous diploids KRY518 or KRY548; positive control in haploid L40 with both fusions from plasmids

B1: Ost1p-Nub (protein, UniProt P41543 23-476)
chain: AQYEPPATWENVDYKRTIDVSNAYISETIEITIKNIASEPATEYFTAFESGIFSKVSFFSAYFTNEATFLNSQLLANSTTAPGDDGESEIRYGIIQFPNAISPQEEVSLVIKSFYNTVGIPYPEHVGMSEEQHLLWETNRLPLSAYDTKKASFTLIGSSSFEEYHPPNDESLLGKANGNSFEFGPWEDIPRFSSNETLAIVYSHNAPLNQVVNLRRDIWLSHWASTIQFEEYYELTNKAAKLSKGFSRLELMKQIQTQNMRQTHFVTVLDMLLPEGATDHYFTDLVGLVSTSHAERDHFFIRPRFPIFGGWNYNFTVGWTNKLSDFLHVSSGSDEKFVASIPILNGPPDTVYDNVELSVFLPEGAEIFDIDSPVPFTNVSIETQKSYFDLNKGHVKLTFSYRNLISQVANGQVLIKYDYPKSSFFKKPLSIACYIFTALMGVFVLKTLNMNVTN
- binding: binds
